PubChem BioAssay AID1259405 – NCATS, 2018
In all, the deposit lists about 50,000 reagents; shown is a part drawn at random. About 4,000 of them (8%) were called active. 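Mouse siRNA library applied to hamster cells; one well for each siRNA.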 Entries without a mark were called inactive. Reagents against one gene are numbered here.

Test: 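Mouse-designed siRNAs used to find CHO productivity engineering targets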 (primary screen)
System: Chinese hamster CHO-K1 ovary cells with stable secreted eGFP expression
Reagent: single siRNA against mouse genes, 0.8 pmol siRNA per well (2 µl of 400 nM stock)
Time to read-out: 3 days
Detection: 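Per-well intracellular GFP measured by laser scanning cytometry, plus viability from ATP luminescence, each relative to plate median of non-targeting control wells, in %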
Reading the numbers: GFP, % of control: higher = more GFP per well, higher productivity; viability (ATP), % of control: higher = more viable cells (more ATP)
Call rule: 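a knock-down is called active if GFP reaches 120% or more of non-targeting control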

target gene	reagent no.	GFP, % of control	viability (ATP), % of control
Itgb4 (integrin beta 4)	1	86.6	70.5
Itgb4 (integrin beta 4)	2	62.8	61.9
Radil (Ras association and DIL domains)	1	85.5	97.9
Radil (Ras association and DIL domains)	2	70.3	83.8
Radil (Ras association and DIL domains)	3	104	103
Plk5 (polo like kinase 5)	1	246 (active)	116
Plk5 (polo like kinase 5)	2	158 (active)	68.9
Plk5 (polo like kinase 5)	3	55.6	68.5
Lce1h (late cornified envelope 1H)	1	49.3	89.2
Lce1h (late cornified envelope 1H)	2	95.6	116
Lce1h (late cornified envelope 1H)	3	111	140
Pou6f1 (POU domain, class 6, transcription factor 1)	1	55.1	71.4
Pou6f1 (POU domain, class 6, transcription factor 1)	2	72.8	79.6
Pou6f1 (POU domain, class 6, transcription factor 1)	3	87.6	64.6
6430571L13Rik (RIKEN cDNA 6430571L13 gene)	1	96.3	49.7
6430571L13Rik (RIKEN cDNA 6430571L13 gene)	2	70.2	82.9
6430571L13Rik (RIKEN cDNA 6430571L13 gene)	3	109	121

Reagents listed so far called active, once more:
target gene	reagent no.	GFP, % of control	viability (ATP), % of control
Plk5 (polo like kinase 5)	1	246 (active)	116
Plk5 (polo like kinase 5)	2	158 (active)	68.9

Continued.
target gene	reagent no.	GFP, % of control	viability (ATP), % of control
Mapk15 (mitogen-activated protein kinase 15)	1	120 (active)	47.2
Plxdc2 (plexin domain containing 2)	1	42.7	61.6
Plxdc2 (plexin domain containing 2)	2	44.7	51.8
Plxdc2 (plexin domain containing 2)	3	76.3	53.1
Vmn1r65 (vomeronasal 1 receptor 65)	1	64	52.3
Vmn1r65 (vomeronasal 1 receptor 65)	2	74.6	70.5
Vmn1r65 (vomeronasal 1 receptor 65)	3	97.5	89.9
Nek9 (NIMA (never in mitosis gene a)-related expressed kinase 9)	1	63.1	73.7
Kif3b (kinesin family member 3B)	1	66.2	70.1
Kif3b (kinesin family member 3B)	2	76.4	93.3
Snx11 (sorting nexin 11)	1	98.5	131
Snx11 (sorting nexin 11)	2	80.4	74.1
Pcdhb3 (protocadherin beta 3)	1	88	81.9
Pcdhb3 (protocadherin beta 3)	2	99.9	78.7
Ccdc28a (coiled-coil domain containing 28A)	1	86.2	78
Ccdc28a (coiled-coil domain containing 28A)	2	97.9	79.6
Ccdc28a (coiled-coil domain containing 28A)	3	131 (active)	146
